Results taken from paper PMC7819943, “Rice protein-binding microarrays: a tool to detect cis-acting elements near promoter regions in rice”.
This is one part of the list.

Molecular target: T1, OsSMF1 (Oryza sativa, UniProt Q6ZLB0 1-436)
T1 sequence: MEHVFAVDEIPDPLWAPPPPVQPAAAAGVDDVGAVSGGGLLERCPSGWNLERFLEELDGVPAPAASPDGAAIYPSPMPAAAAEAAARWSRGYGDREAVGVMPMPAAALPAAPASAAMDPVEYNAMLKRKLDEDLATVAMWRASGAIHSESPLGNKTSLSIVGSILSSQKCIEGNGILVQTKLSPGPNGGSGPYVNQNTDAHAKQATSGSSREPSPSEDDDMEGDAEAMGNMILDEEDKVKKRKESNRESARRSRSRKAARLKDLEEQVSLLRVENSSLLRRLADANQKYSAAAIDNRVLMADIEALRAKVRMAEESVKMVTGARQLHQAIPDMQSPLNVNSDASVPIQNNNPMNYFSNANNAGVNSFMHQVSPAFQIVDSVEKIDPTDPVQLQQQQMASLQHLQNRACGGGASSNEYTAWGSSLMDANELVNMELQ
Test: protein-binding microarray (RPBM); PBS, 2% BSA, 51.3 ng/ul salmon testes DNA, 50 uM zinc acetate, 200 nM TF, 25 C, 1 h; high values mean tight binding
Details: protein: recombinant; tags: N-terminal polyhistidine and DsRed monomer fusion (pET32a); chain copies: 2; label: CyDye5-dUTP incorporated in the synthesized complementary strand; 3' TTTTT single-stranded linker to array surface; dsDNA, one strand shown
Method in brief: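 Transcription factors, each fused N-terminally to a polyhistidine tag and DsRed, were expressed in E. coli BL21-CodonPlus and purified on Ni–NTA. A custom Agilent array was made double-stranded by primer extension with Cy5-dUTP and blocked with 2% BSA. It was incubated with 200 nM protein in PBS, 2% BSA, salmon testes DNA and 50 µM zinc acetate at 25 °C for 1 h, then washed. The binding signal is per-feature fluorescence intensity (arbitrary units) read on an Axon 4000B scanner.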

Sequence | binding signal
ACACATGCTGTTAAGAAGTATGGCTTTATACATTCTATGTCGGAGTCACCTAGTGCAG | 31500 fluorescence intensity (a.u.)
CCGCCACGTGGTGTATCCAATATGTTTGGTAATTGGCTACCGGAGTCACCTAGTGCAG | 21600 fluorescence intensity (a.u.)
AGTACTCTATACATGTGTCCAAATATTCGATGTGACATGGCGGAGTCACCTAGTGCAG | 3470 fluorescence intensity (a.u.)
CTCTTAGTATCGCTGATACGTGGGCCACCAGCCAATCATACGGAGTCACCTAGTGCAG | 4080 fluorescence intensity (a.u.)
CGAGGCCCACGACGTGCCAGCTCAATCTCAAAGCCCAGAACGGAGTCACCTAGTGCAG | 3400 fluorescence intensity (a.u.)
ACATTGTTCAGTCCACGTTTGCTTCGGTTCGCTTTTCCGTCGGAGTCACCTAGTGCAG | 6370 fluorescence intensity (a.u.)
TATCCAAAATTTCATCCAACTCTTGTGGGAGAAACGGACACGGAGTCACCTAGTGCAG | 39500 fluorescence intensity (a.u.)
ACTTTGTCCACGCCATCCTCCAAGTCTCCAAACCTACACACGGAGTCACCTAGTGCAG | 3810 fluorescence intensity (a.u.)
ATGATCCCGTTTACCACTCTTGAGCTGTCAATTATTTGGGCGGAGTCACCTAGTGCAG | 6000 fluorescence intensity (a.u.)
AGAGAGGGTTTGGAGGCCTCAGAAAGCAGAGGTTCATCTCCGGAGTCACCTAGTGCAG | 3300 fluorescence intensity (a.u.)
TGCAAATCTCAATGTGAGTCACATGTGGTGTCATCAGTCACGGAGTCACCTAGTGCAG | 5890 fluorescence intensity (a.u.)
CTAGGTATATAGCATCCATACATATAATTAGTTAGGTATGCGGAGTCACCTAGTGCAG | 3300 fluorescence intensity (a.u.)
TTGGTGAAATGGTGACTTGTGGACTGATGGAGTGGGAGCTCGGAGTCACCTAGTGCAG | 4500 fluorescence intensity (a.u.)
ATATCTCTCCCACCCACCCACTCTTCCTCCACTCCGGCGACGGAGTCACCTAGTGCAG | 3340 fluorescence intensity (a.u.)
ATGCCTGCTACGTACGTGTGCGTAGAAGATGTTGCTGTTGCGGAGTCACCTAGTGCAG | 5090 fluorescence intensity (a.u.)
ACTAATTGATCATCGTGATCGTCATCATCTTCATTTGTCTCGGAGTCACCTAGTGCAG | 3440 fluorescence intensity (a.u.)
TTTAGCATGGGACATCTGACAGGTCAGGTCCATCTGTCATCGGAGTCACCTAGTGCAG | 4010 fluorescence intensity (a.u.)
ATTTTGGGCCAAATTCCCTTCAATTAACCCAATCAGCACACGGAGTCACCTAGTGCAG | 3250 fluorescence intensity (a.u.)
GAAAATTACGCGATATGGGTGATGGCGCCCTGTTCCTTATCGGAGTCACCTAGTGCAG | 3730 fluorescence intensity (a.u.)
GTCTCGGTGGATAACGGACGGTGACGTGATCTACGGTGAGCGGAGTCACCTAGTGCAG | 3240 fluorescence intensity (a.u.)
CGGCTAGAAGCGCCGATAGCTGCCGTCCTCCGTCACTTCCCGGAGTCACCTAGTGCAG | 4550 fluorescence intensity (a.u.)
CCTTGCGCTCAATGCCAGGCGGCCCAGTTAAACTACACGCCGGAGTCACCTAGTGCAG | 3150 fluorescence intensity (a.u.)
TACCTGATGAGTGATAAGACTCAACTGACGTGCTGTGCTGCGGAGTCACCTAGTGCAG | 5360 fluorescence intensity (a.u.)
AAGGATTGCTATGATTCATATTTGTCACCGTGGGTACCAGCGGAGTCACCTAGTGCAG | 4150 fluorescence intensity (a.u.)
CCTGAACACCCTACTCCGCATTTAGACAATGCCGTTAAATCGGAGTCACCTAGTGCAG | 3490 fluorescence intensity (a.u.)
GGGATGATTTGTCTGGTGGAATCTAAGGCCTCCATAAATGCGGAGTCACCTAGTGCAG | 3170 fluorescence intensity (a.u.)
TAAACCTGCGGGTTCATGTGTCGTGGTCTAACTTACTGTACGGAGTCACCTAGTGCAG | 3140 fluorescence intensity (a.u.)

Some of the entries above, reformatted:
Sequence	binding signal
ACTAATTGATCATCGTGATCGTCATCATCTTCATTTGTCTCGGAGTCACCTAGTGCAG	3440 fluorescence intensity (a.u.)
GTCTCGGTGGATAACGGACGGTGACGTGATCTACGGTGAGCGGAGTCACCTAGTGCAG	3240 fluorescence intensity (a.u.)

Later entries:

Sequence | binding signal
AGGGAGGAGGGTGGGTGGTGCCAACACGTCAGGCTGAATTCGGAGTCACCTAGTGCAG | 10100 fluorescence intensity (a.u.)
TGTGTATCCGGCCGTGTCACGTGAAGCCCGGTACGGCCCCCGGAGTCACCTAGTGCAG | 6950 fluorescence intensity (a.u.)
ACCTACGTCTGCACAATTGTTGCACACGCAGATCCAGCACCGGAGTCACCTAGTGCAG | 20100 fluorescence intensity (a.u.)
GGCAGATGTGGACGGAGGGAGGGAGGGAGGGAGAGGGGCACGGAGTCACCTAGTGCAG | 3740 fluorescence intensity (a.u.)
TCTCCCCAGATTTCCCCTTCCATTCCGCCTCCCGATCGCTCGGAGTCACCTAGTGCAG | 43300 fluorescence intensity (a.u.)
GGTGGTGGTGGTGGTGGTGGTGGCCGCCGGTGGTGATTGGCGGAGTCACCTAGTGCAG | 4600 fluorescence intensity (a.u.)
TACCTGTGACGGGCAATCGAAATGGTCACTGATGACCGTCCGGAGTCACCTAGTGCAG | 3550 fluorescence intensity (a.u.)
GTTAGGCAGGACCCTTGACGCGGACTATGACGACGTGGCCCGGAGTCACCTAGTGCAG | 9600 fluorescence intensity (a.u.)
AGTTTGGCCCCATCAACGTTGATGACGTCGGCTATGGCCTCGGAGTCACCTAGTGCAG | 7280 fluorescence intensity (a.u.)
CTGACCTGTGCCTCCACGTGACGTTAGTGGGGCTTTTGTCCGGAGTCACCTAGTGCAG | 5970 fluorescence intensity (a.u.)
CAGGCAGGCTGCTTAATATCAAGGATAGTCATTTGTCAGCCGGAGTCACCTAGTGCAG | 19800 fluorescence intensity (a.u.)
TACCCCATCACCAACCTGGATTTGGTGGCATGGGTGGGGTCGGAGTCACCTAGTGCAG | 4190 fluorescence intensity (a.u.)
ATCAATTAATCATGAGCTAATGACTCACTTCGTTTTACGTCGGAGTCACCTAGTGCAG | 6260 fluorescence intensity (a.u.)
CTTCTCCTAGCCTCCTTGTGTTAGTGCACATGTCATTCGGCGGAGTCACCTAGTGCAG | 4200 fluorescence intensity (a.u.)
TTTACTGATCTTTACCTCAGTCAGCGTTGTGTGTTAGGTTCGGAGTCACCTAGTGCAG | 3540 fluorescence intensity (a.u.)
CTGGGGAGGGCGACGGCGCAGTGCGGGGTGGACGGGAGCGCGGAGTCACCTAGTGCAG | 3480 fluorescence intensity (a.u.)
CAGAAATATATATATGGTGGCCACATTGCATAAAAGTATACGGAGTCACCTAGTGCAG | 5660 fluorescence intensity (a.u.)
CAACAAATCCGACATGTCATTCTCACCCCTCTTCTTCCTCCGGAGTCACCTAGTGCAG | 6150 fluorescence intensity (a.u.)
TCATTACTCAACGTGCTGCAGAGCGTGGTGGCAGCCCTGGCGGAGTCACCTAGTGCAG | 3550 fluorescence intensity (a.u.)
AGACTATACTATTGAACTTGCTCTAATAGTCTGCTATTGTCGGAGTCACCTAGTGCAG | 7810 fluorescence intensity (a.u.)
TCTAAAATTTATCGAATTTTGGAACGATGTGCGTGTGCAACGGAGTCACCTAGTGCAG | 23200 fluorescence intensity (a.u.)
ATAAAGTATACTACGAGCGATGACGCAGTACAGAATAGGACGGAGTCACCTAGTGCAG | 4260 fluorescence intensity (a.u.)
CCAACAGCGACCGGTGACGTGTCCCGTGTGCCCAACTTATCGGAGTCACCTAGTGCAG | 22600 fluorescence intensity (a.u.)
TCCATTTGATAACTCCATACGGCGAATGACGAATTAACCCCGGAGTCACCTAGTGCAG | 3420 fluorescence intensity (a.u.)
GACCAGCACATCAGTTGATGACGATGTCTCTATTGTTATTCGGAGTCACCTAGTGCAG | 6330 fluorescence intensity (a.u.)
CCACGGAGAACCACTTGCCATCCCTCTTGATCTGCAGACCCGGAGTCACCTAGTGCAG | 3450 fluorescence intensity (a.u.)
CTTCGCTTGATCGATCCCATCAAAGAGTGACGGAGGTGGTCGGAGTCACCTAGTGCAG | 12200 fluorescence intensity (a.u.)
